According to patent publication US20250009750A1, “METHODS OF TREATING DISORDERS ASSOCIATED WITH EYA OVEREXPRESSION AND MUTATIONS” (The Board of Regents of the University of Texas System, priority 2023, published 2025):

B1: YF, YF: double-mutant RAD51 (Y54F, Y315F) that cannot be phosphorylated (protein, UniProt Q06609 2-339, looked up, variant Y54F Y315F)
DNA repair protein RAD51 …: AMQMQLEANADTSVEEESFGPQPISRLEQCGINANDVKKLEEAGFHTVEAVAFAPKKELINIKGISEAKADKILAEAAKLVPMGFTTATEFHQRRSEIIQITTGSKELDKLLQGGIETGSITEMFGEFRTGKTQICHTLAVTCQLPIDRGGGEGKAMYIDTEGTFRPERLLAVAERYGLSGSDVLDNVAYARAFNTDHQTQLLYQASAMMVESRYALLIVDSATALYRTDYSGRGELSARQMHLARFLRMLLRLADEFGVAVVITNQVVAQVDGAAMFAADPKKPIGGNIIAHASTTRLYLRKGRGETRICKIFDSPCLPEAEAMFAINADGVGDAKD
B2: WT: purified wild type RAD51 (protein, UniProt Q06609 2-339, looked up)
DNA repair protein RAD51 …: AMQMQLEANADTSVEEESFGPQPISRLEQCGINANDVKKLEEAGFHTVEAVAYAPKKELINIKGISEAKADKILAEAAKLVPMGFTTATEFHQRRSEIIQITTGSKELDKLLQGGIETGSITEMFGEFRTGKTQICHTLAVTCQLPIDRGGGEGKAMYIDTEGTFRPERLLAVAERYGLSGSDVLDNVAYARAFNTDHQTQLLYQASAMMVESRYALLIVDSATALYRTDYSGRGELSARQMHLARFLRMLLRLADEFGVAVVITNQVVAQVDGAAMFAADPKKPIGGNIIAHASTTRLYLRKGRGETRICKIYDSPCLPEAEAMFAINADGVGDAKD
B3: YD, YD: double phospho-mimetic RAD51 (Y54D, Y315D) (protein, UniProt Q06609 2-339, looked up, variant Y54D Y315D)
DNA repair protein RAD51 …: AMQMQLEANADTSVEEESFGPQPISRLEQCGINANDVKKLEEAGFHTVEAVADAPKKELINIKGISEAKADKILAEAAKLVPMGFTTATEFHQRRSEIIQITTGSKELDKLLQGGIETGSITEMFGEFRTGKTQICHTLAVTCQLPIDRGGGEGKAMYIDTEGTFRPERLLAVAERYGLSGSDVLDNVAYARAFNTDHQTQLLYQASAMMVESRYALLIVDSATALYRTDYSGRGELSARQMHLARFLRMLLRLADEFGVAVVITNQVVAQVDGAAMFAADPKKPIGGNIIAHASTTRLYLRKGRGETRICKIDDSPCLPEAEAMFAINADGVGDAKD
B4: 1-365: N-terminally m-cherry-tagged EYA4 (aa 1-365), purified (protein, UniProt O95677 1-365, looked up, fragment)
chain: MEDSQDLNEQSVKKTCTESDVSQSQNSRSMEMQDLASPHTLVGGGDTPGSSKLEKSNLSSTSVTTNGTGGENMTVLNTADWLLSCNTPSSATMSLLAVKTEPLNSSETTATTGDGALDTFTGSVITSSGYSPRSAHQYSPQLYPSKPYPHILSTPAAQTMSAYAGQTQYSGMQQPAVYTAYSQTGQPYSLPTYDLGVMLPAIKTESGLSQTQSPLQSGCLSYSPGFSTPQPGQTPYSYQMPGSSFAPSSTIYANNSVSNSTNFSGSQQDYPSYTAFGQNQYAQYYSASTYGAYMTSNNTADGTPSSTSTYQLQESLPGLTNQPGEFDTMQSPSTPIKDLDERTCRSSGSKSRGRGRKNNPSPPPD
modifications: N-terminal mCherry tag
notes: N-terminally m-cherry-tagged EYA4 (aa 1-365), purified
B5: SQTQ: phosphomimetic EYA4 double mutant in the ATM-ATR consensus site SQTQ (S209D, T211D) (protein, UniProt O95677 1-639, looked up, variant S209D T211D)
Protein phosphatase EYA4: MEDSQDLNEQSVKKTCTESDVSQSQNSRSMEMQDLASPHTLVGGGDTPGSSKLEKSNLSSTSVTTNGTGGENMTVLNTADWLLSCNTPSSATMSLLAVKTEPLNSSETTATTGDGALDTFTGSVITSSGYSPRSAHQYSPQLYPSKPYPHILSTPAAQTMSAYAGQTQYSGMQQPAVYTAYSQTGQPYSLPTYDLGVMLPAIKTESGLDQDQSPLQSGCLSYSPGFSTPQPGQTPYSYQMPGSSFAPSSTIYANNSVSNSTNFSGSQQDYPSYTAFGQNQYAQYYSASTYGAYMTSNNTADGTPSSTSTYQLQESLPGLTNQPGEFDTMQSPSTPIKDLDERTCRSSGSKSRGRGRKNNPSPPPDSDLERVFVWDLDETIIVFHSLLTGSYAQKYGKDPPMAVTLGLRMEEMIFNLADTHLFFNDLEECDQVHIDDVSSDDNGQDLSTYSFATDGFHAAASSANLCLPTGVRGGVDWMRKLAFRYRRVKELYNTYKNNVGGLLGPAKRDAWLQLRAEIEGLTDSWLTNALKSLSIISTRSNCINVLVTTTQLIPALAKVLLYSLGGAFPIENIYSATKIGKESCFERIMQRFGRKVVYVVIGDGVEEEQAAKKHNMPFWRISSHSDLLALHQALELEYL

Columns and labels:
cy5-labeled ssDNA = assay: Microscale thermophoresis (MST) DNA binding, ssDNA
Protocol: (§1) A total of 12 concentrations of ligand proteins (e.g., EYA (1-365)) were serially diluted by 1:1 using MST buffer from 5 uM to 2.4 nM, 10 ul of each dose of ligand protein was mixed with 10 ul of cy5-labeled dsDNA/ssDNA supernatant. The mixture of EYA and DNA was loaded into premium capillaries for MST assay with parameters set up at auto-detected excitation power and medium MST power. Binding affinity was analyzed by MO. Affinity Analysis software (version 2.1.3, NanoTemper Technologies) using the signal from an MST-on time of 20 s. Three individual experiments were merged to generate standard deviation.
(§2) Cy5-labeled oligo P1 (T. T. Paull Curr Opin Genet Dev 71, 55-62 (2021)). from IDT ([…]-[…]; SEQ ID NO:1) was used as the ssDNA substrate. dsDNA was generated by annealing Cy5-labeled oligo P1 with its exact complement P2 […]-AAATAAGTAAAAG […] (SEQ ID NO:2). The annealed product was purified by SDS-PAGE then concentrated and quantified. For the long system assays, substrates were sourced from NEB. The ssDNA is the ϕX174 virion DNA and the dsDNA its replicative form ϕX174 RF I DNA.

cy5-labeled dsDNA = assay: Microscale thermophoresis (MST) DNA binding, dsDNA
Protocol: as §1, §2

[1] = RAD51 proteins binding ssDNA, Table 5
[2] = EYA4 constructs binding ssDNA, Table 4
[3] = EYA4 constructs binding dsDNA, Table 4

Molecule | Hill Coeff. (cy5-labeled ssDNA; [1]) | Hill Coeff. (cy5-labeled dsDNA; RAD51 proteins binding dsDNA) | Hill Coeff. (cy5-labeled ssDNA; [2]) | Hill Coeff. (cy5-labeled dsDNA; [3])
B1 | 3.312 | 7.07 |  | 
B2 | 2.662 | 2.2959 |  | 
B3 |  | 2.6695 |  | 
B4 |  |  | 1.6539 | 1.6489
B5 |  |  | 2.662 | 2.6104
